Changes are numbered by the printed parent chain. These are yes or no findings as the source states them, for the method shown. In cells and extracts the contact can be indirect. Some binding calls cover weakened binding; strength is not graded here. Sequences can lack the tags named with a protein.

The text below walks through data of publication PMC8285540.

The target in test [1] is T1, mutant FBXO32 (Gly243Arg) carrying a Flag epitope (human) (UniProt Q969P5).
T1 sequence: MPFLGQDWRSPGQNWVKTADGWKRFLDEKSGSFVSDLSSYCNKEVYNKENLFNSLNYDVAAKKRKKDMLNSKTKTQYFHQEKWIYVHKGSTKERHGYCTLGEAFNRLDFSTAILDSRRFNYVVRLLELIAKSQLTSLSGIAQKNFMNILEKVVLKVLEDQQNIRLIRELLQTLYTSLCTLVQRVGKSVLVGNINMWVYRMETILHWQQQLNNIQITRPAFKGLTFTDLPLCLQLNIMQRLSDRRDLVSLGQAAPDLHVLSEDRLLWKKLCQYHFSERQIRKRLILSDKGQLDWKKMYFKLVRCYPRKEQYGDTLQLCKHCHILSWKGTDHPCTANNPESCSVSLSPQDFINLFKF
Briefly: co-IP; HEK293 cells co-transfected with Flag-FBXO32 (WT or mutant) and FLAG-tagged ATF2; FBXO32 immunoprecipitated with anti-FBXO32 antibody, blot with anti-ATF2 antibody; control IgG.

Test [2] deals with T2, wild-type FBXO32 carrying a Flag epitope (FBXO32-FLAG) (human) (UniProt Q969P5).
T2 sequence: T1 sequence with R243G
Described as above.

B1: ATF2 carrying a Flag epitope (ATF2-FLAG) (protein, UniProt P15336 1-505)
chain: MKFKLHVNSARQYKDLWNMSDDKPFLCTAPGCGQRFTNEDHLAVHKHKHEMTLKFGPARNDSVIVADQTPTPTRFLKNCEEVGLFNELASPFENEFKKASEDDIKKMPLDLSPLATPIIRSKIEEPSVVETTHQDSPLPHPESTTSDEKEVPLAQTAQPTSAIVRPASLQVPNVLLTSSDSSVIIQQAVPSPTSSTVITQAPSSNRPIVPVPGPFPLLLHLPNGQTMPVAIPASITSSNVHVPAAVPLVRPVTMVPSVPGIPGPSSPQPVQSEAKMRLKAALTQQHPPVTNGDTVKGHGSGLVRTQSEESRPQSLQQPATSTTETPASPAHTTPQTQSTSGRRRRAANEDPDEKRRKFLERNRAAASRCRQKRKVWVQSLEKKAEDLSSLNGQLQSEVTLLRNEVAQLKQLLLAHKDCPVTAMQKKSGYHTADKDDSSEDISVPSSPHTEAIQHSSVSTSNGVSSTSKAEAVATSVLTQMADQSTEPALSQIVMAPSSQSQPSGS
On to B1, for which the binding result in test [1] and in test [2] was “binds” in each case.
